No constants are given. Whether binding was seen depends on the method and setting. Binding seen in cells or lysates may run through a third protein. Some results given as binding are weak or reduced against the parent protein; the word gives no strength.
T1: oestrogen-related receptor alpha (ERRα) (mouse (endogenous in prefrontal cortex tissue and primary cortical neurons)) (UniProt O08580)
T1 sequence: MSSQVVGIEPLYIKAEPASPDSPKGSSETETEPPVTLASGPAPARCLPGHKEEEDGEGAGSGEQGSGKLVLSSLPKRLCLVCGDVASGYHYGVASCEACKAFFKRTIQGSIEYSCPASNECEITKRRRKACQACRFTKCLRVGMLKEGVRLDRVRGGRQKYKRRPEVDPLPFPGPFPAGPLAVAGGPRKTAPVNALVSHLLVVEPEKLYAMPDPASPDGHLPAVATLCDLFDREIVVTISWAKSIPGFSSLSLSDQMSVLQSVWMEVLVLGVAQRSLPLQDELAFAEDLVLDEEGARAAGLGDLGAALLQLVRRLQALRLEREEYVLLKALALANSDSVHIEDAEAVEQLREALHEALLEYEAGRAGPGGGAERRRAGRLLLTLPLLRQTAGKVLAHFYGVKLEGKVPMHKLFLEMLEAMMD

Chains of the proteins cited; added tags and fusions are not shown.
UniProt P19785: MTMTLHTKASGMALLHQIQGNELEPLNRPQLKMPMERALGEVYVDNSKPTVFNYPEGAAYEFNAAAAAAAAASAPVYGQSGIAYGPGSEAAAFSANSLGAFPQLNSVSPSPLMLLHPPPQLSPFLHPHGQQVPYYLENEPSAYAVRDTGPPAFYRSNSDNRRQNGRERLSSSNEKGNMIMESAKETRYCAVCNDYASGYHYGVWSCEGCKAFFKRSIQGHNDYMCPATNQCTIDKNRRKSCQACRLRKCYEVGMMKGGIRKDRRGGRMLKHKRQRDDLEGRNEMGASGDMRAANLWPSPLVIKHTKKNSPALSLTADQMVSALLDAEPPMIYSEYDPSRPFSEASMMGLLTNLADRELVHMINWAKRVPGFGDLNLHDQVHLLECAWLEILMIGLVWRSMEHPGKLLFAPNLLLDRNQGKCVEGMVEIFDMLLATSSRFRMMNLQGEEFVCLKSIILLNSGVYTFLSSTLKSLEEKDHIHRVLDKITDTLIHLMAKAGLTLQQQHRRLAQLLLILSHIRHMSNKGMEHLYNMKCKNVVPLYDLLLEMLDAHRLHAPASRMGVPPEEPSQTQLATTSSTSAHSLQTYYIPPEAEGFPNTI
UniProt Q00175: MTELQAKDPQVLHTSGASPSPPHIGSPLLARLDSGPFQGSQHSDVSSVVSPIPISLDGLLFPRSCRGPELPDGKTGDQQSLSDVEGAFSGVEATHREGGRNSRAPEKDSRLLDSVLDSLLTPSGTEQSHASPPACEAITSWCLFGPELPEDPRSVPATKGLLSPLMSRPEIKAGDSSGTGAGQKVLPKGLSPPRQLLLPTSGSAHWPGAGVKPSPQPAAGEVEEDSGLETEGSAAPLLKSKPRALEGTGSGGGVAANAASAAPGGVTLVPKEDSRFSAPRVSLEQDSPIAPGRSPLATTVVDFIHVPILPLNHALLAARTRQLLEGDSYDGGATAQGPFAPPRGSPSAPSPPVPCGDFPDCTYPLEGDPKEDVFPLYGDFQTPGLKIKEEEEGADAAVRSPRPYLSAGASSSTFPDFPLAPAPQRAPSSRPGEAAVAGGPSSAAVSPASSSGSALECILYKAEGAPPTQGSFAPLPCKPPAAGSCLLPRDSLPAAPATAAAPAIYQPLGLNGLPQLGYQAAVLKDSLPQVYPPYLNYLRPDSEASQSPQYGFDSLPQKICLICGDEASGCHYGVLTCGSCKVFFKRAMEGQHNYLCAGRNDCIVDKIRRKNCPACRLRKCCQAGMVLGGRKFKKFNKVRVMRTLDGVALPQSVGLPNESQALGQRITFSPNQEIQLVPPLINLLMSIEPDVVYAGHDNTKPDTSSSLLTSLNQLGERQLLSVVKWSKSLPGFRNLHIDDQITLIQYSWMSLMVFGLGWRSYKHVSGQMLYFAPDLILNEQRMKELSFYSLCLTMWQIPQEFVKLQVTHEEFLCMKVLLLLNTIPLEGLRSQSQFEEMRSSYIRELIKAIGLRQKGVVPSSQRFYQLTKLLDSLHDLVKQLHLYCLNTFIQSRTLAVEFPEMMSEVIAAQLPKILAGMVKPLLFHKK

B1: PGC1α (ERRα coactivator, encoded by PPARGC1A) (protein, UniProt O70343 1-797)
chain: MAWDMCSQDSVWSDIECAALVGEDQPLCPDLPELDLSELDVNDLDTDSFLGGLKWCSDQSEIISNQYNNEPANIFEKIDEENEANLLAVLTETLDSLPVDEDGLPSFDALTDGAVTTDNEASPSSMPDGTPPPQEAEEPSLLKKLLLAPANTQLSYNECSGLSTQNHAANHTHRIRTNPAIVKTENSWSNKAKSICQQQKPQRRPCSELLKYLTTNDDPPHTKPTENRNSSRDKCASKKKSHTQPQSQHAQAKPTTLSLPLTPESPNDPKGSPFENKTIERTLSVELSGTAGLTPPTTPPHKANQDNPFKASPKLKPSCKTVVPPPTKRARYSECSGTQGSHSTKKGPEQSELYAQLSKSSGLSRGHEERKTKRPSLRLFGDHDYCQSLNSKTDILINISQELQDSRQLDFKDASCDWQGHICSSTDSGQCYLRETLEASKQVSPCSTRKQLQDQEIRAELNKHFGHPCQAVFDDKSDKTSELRDGDFSNEQFSKLPVFINSGLAMDGLFDDSEDESDKLSYPWDGTQPYSLFDVSPSCSSFNSPCRDSVSPPKSLFSQRPQRMRSRSRSFSRHRSCSRSPYSRSRSRSPGSRSSSRSCYYYESSHYRHRTHRNSPLYVRSRSRSPYSRRPRYDSYEAYEHERLKRDEYRKEHEKRESERAKQRERQKQKAIEERRVIYVGKIRPDTTRTELRDRFEVFGEIEECTVNLRDDGDSYGFITYRYTCDAFAALENGYTLRRSNETDFELYFCGRKQFFKSNYADLDTNSDDFDPASTKSKYDSLDFDSLLKEAQRSLRR

What was measured:
[1] = target: oestrogen receptor alpha (ERα) (mouse (endogenous in cortical tissue of 3xTg mice)) (UniProt P19785); experiment: co-IP; RIPA lysates of cortical tissue of 3xTg mice, vehicle or VCD (Cycle 7) and with or without P4 supplementation (Cycle 14); Dynabeads Protein G, immunoblot; which protein was precipitated not given
[2] = target: T1, oestrogen-related receptor alpha (ERRα) (mouse (endogenous in prefrontal cortex tissue and primary cortical neurons)); experiment: co-IP; RIPA lysates of prefrontal cortex tissue of vehicle- or VCD-treated mice; 1 mg lysate precleared with control IgG and Dynabeads Protein G, antibody overnight at 4 °C, immunoblot; which protein was precipitated not given
[3] = target: T1, oestrogen-related receptor alpha (ERRα) (mouse (endogenous in prefrontal cortex tissue and primary cortical neurons)); experiment: co-IP; RIPA lysates of mouse primary neurons after treatments (E2 with or without P4, mifepristone or MPP dihydrochloride, as for the other panels of Fig. 4); Dynabeads Protein G, immunoblot; which protein was precipitated not given

Molecule | binding [1] | binding [2] | binding [3]
progesterone receptor (PR) (from UniProt Q00175 1-926) | binds | – | –
B1 | – | binds | binds
